Source: the supplement of paper PMC6411743
± gives the standard deviation of the averaged measurements. This is a selection; strong and weak results do not stand in their true shares.

By UniProt entry, the sequences of proteins in these tests, tags left out. Where a name states a change or a piece, a line headed by the entry shows the natural chain unless it says otherwise.
UniProt Q4J6C6, whole entry: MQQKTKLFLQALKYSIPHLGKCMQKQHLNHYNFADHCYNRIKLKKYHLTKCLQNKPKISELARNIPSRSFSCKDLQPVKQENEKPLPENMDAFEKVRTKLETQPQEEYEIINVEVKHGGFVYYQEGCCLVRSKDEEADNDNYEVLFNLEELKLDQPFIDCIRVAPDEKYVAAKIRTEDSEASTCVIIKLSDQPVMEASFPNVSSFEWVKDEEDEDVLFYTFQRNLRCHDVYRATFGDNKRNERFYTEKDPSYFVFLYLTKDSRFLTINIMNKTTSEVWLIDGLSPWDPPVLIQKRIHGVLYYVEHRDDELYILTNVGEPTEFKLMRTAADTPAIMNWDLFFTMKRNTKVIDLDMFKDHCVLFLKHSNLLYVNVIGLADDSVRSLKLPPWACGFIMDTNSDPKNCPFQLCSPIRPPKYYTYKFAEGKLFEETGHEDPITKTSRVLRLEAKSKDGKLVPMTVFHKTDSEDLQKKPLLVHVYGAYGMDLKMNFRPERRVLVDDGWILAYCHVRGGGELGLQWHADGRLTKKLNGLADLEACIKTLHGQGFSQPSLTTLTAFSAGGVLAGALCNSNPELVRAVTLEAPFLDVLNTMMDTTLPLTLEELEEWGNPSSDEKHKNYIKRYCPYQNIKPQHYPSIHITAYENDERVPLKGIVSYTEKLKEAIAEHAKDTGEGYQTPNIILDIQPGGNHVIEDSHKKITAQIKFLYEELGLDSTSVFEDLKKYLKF
UniProt Q14258, whole entry: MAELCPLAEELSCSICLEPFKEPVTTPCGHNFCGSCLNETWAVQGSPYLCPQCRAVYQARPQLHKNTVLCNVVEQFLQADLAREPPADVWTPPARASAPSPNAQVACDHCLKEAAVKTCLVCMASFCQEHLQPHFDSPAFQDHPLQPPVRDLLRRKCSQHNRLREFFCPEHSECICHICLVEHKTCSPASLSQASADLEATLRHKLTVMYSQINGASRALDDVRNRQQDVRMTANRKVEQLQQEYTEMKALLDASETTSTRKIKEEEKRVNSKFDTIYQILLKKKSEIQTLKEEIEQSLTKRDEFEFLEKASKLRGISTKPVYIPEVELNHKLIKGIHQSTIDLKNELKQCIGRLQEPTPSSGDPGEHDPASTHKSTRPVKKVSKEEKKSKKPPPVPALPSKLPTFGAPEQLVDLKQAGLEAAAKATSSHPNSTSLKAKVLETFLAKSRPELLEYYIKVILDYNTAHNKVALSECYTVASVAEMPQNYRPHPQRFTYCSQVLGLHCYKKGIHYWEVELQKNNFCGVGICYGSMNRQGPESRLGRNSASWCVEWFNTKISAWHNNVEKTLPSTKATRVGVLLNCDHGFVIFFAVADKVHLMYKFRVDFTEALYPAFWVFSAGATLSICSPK
UniProt Q15560: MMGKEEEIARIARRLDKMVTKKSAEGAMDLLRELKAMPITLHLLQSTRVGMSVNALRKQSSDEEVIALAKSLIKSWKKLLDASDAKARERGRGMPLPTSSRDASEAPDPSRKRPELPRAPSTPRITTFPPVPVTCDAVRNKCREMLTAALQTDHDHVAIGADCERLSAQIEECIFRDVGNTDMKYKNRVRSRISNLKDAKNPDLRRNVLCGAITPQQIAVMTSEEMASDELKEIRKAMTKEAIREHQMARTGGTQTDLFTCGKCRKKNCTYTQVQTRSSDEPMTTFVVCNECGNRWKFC
UniProt Q14653: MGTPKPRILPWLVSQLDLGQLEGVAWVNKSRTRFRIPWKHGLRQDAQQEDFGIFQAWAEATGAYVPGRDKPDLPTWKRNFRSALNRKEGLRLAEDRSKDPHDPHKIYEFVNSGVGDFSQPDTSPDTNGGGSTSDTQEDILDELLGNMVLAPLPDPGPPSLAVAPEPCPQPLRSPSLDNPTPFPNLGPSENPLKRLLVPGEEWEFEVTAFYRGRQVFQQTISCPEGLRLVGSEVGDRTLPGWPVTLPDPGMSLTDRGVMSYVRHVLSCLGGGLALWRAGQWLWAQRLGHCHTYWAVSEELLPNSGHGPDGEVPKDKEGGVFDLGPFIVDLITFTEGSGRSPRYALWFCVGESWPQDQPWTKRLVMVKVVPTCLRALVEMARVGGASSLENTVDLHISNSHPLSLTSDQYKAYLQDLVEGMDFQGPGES
UniProt Q14738, whole entry: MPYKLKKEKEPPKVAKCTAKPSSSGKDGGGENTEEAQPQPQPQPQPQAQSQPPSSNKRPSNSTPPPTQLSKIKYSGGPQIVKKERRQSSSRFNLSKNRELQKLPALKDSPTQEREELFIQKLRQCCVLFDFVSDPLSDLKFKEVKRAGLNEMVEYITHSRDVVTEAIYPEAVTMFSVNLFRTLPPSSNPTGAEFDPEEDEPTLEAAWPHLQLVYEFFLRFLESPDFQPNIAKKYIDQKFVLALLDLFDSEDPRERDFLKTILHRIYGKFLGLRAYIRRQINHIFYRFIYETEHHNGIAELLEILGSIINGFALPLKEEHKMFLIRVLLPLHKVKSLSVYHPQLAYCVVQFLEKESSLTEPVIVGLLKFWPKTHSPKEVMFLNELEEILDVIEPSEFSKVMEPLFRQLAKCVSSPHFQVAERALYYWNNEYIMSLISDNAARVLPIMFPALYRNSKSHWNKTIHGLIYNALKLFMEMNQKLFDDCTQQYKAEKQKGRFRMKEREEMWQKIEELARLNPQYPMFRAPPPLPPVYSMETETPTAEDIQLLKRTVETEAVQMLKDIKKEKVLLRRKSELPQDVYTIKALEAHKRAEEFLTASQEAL
UniProt Q3SXM5: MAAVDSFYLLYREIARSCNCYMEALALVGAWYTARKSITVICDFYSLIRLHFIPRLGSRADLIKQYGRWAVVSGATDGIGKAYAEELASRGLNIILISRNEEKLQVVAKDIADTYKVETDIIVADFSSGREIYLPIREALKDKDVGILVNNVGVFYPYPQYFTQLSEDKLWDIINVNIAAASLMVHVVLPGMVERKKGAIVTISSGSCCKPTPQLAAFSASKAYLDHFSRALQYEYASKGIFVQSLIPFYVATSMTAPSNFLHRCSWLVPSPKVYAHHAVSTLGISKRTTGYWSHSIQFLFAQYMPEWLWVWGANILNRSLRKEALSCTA
UniProt Q15542, whole entry: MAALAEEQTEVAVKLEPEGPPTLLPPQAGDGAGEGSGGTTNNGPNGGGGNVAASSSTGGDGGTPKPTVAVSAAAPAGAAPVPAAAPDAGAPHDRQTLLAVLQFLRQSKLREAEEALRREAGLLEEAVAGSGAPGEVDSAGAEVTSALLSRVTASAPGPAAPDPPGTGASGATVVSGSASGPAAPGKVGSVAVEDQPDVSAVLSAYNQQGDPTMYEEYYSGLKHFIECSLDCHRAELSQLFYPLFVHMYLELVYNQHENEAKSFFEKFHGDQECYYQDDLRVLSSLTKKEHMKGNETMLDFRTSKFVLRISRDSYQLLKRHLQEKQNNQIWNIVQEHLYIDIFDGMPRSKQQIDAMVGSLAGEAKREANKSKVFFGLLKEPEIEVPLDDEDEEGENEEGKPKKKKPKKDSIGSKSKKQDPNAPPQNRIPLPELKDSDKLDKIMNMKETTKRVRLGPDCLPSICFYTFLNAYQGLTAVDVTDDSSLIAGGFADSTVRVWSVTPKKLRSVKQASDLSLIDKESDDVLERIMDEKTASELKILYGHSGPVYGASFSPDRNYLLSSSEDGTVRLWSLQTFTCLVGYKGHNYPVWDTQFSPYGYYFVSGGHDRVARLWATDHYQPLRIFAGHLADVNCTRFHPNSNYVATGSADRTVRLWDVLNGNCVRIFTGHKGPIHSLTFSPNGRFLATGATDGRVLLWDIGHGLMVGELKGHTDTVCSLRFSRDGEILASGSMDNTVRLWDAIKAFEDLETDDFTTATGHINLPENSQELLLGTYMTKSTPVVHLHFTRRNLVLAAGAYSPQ
UniProt Q15427: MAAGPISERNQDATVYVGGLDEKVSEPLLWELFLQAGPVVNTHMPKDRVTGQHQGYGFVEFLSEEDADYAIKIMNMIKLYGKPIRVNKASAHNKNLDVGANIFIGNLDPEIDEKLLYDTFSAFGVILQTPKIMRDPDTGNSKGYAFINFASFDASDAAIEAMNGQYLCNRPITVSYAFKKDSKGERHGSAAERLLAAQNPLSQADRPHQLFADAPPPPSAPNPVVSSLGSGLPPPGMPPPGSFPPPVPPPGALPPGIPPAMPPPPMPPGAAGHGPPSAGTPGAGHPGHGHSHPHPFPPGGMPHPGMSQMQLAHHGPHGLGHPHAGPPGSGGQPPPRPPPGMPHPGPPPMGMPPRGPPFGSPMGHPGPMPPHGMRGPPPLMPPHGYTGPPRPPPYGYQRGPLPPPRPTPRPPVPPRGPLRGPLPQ
UniProt Q14696: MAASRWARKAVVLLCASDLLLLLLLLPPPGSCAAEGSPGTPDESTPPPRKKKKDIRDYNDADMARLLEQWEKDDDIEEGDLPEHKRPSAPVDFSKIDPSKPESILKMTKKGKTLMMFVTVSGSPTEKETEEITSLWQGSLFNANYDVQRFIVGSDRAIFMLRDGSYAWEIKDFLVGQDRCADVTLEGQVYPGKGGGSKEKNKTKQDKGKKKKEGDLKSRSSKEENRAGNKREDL
UniProt Q16762: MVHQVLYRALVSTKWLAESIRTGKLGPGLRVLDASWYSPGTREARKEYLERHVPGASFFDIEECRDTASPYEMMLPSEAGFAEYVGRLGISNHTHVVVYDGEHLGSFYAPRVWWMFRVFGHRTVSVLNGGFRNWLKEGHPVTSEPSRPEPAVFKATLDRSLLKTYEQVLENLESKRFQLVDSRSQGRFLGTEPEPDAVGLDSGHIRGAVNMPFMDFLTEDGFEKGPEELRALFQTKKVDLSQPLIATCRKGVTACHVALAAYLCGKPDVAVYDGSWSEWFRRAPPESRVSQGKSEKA
UniProt Q15003, whole entry: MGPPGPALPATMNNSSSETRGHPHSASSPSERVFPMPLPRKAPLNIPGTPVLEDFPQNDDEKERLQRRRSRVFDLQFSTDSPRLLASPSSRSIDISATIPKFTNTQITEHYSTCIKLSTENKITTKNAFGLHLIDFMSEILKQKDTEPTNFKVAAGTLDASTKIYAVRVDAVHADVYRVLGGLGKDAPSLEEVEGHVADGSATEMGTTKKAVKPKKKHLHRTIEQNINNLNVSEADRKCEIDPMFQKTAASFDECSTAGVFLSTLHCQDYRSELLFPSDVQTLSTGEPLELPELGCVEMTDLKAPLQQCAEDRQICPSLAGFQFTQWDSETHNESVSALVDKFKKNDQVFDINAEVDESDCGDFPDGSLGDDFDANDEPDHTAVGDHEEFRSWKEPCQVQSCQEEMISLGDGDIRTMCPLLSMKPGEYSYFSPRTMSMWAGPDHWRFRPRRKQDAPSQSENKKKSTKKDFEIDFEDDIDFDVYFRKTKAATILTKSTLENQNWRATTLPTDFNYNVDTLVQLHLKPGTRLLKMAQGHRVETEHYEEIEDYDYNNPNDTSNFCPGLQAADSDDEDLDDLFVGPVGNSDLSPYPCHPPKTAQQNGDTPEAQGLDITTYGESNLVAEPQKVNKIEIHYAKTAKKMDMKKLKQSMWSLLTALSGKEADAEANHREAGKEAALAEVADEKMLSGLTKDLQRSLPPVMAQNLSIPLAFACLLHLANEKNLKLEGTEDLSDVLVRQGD
UniProt Q16795, whole entry: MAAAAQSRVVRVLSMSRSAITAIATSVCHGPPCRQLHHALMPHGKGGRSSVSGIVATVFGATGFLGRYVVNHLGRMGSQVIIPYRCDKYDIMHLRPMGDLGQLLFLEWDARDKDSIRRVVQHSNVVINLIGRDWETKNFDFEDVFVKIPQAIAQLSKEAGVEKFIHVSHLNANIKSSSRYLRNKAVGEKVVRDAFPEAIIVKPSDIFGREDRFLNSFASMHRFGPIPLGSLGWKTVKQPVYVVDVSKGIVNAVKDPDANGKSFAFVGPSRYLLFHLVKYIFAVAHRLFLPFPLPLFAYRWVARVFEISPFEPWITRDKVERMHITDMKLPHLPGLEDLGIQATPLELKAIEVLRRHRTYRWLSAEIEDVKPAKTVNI
UniProt Q14181: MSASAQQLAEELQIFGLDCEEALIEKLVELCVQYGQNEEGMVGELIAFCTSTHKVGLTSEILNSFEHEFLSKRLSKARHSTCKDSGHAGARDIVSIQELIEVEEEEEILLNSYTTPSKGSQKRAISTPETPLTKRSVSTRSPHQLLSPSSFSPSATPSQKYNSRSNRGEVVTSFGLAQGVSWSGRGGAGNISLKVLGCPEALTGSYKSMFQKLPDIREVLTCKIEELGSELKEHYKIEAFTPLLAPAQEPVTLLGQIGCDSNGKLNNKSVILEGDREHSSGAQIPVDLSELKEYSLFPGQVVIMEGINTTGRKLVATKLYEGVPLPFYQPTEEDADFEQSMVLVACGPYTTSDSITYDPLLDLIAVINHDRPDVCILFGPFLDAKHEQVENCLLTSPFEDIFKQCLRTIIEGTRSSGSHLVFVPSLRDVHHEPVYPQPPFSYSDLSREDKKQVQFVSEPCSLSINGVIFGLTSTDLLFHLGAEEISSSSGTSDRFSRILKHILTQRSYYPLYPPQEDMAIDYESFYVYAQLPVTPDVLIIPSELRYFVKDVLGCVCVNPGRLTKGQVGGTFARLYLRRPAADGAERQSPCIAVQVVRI

Compound: Nc1ncnc2c1ncn2[C@@H]1O[C@H](COP(=O)(O)OP(=O)(O)OP(=O)(O)O)[C@@H](O)[C@H]1O [adenosine triphosphate]
Experiment: NP40-soluble protein abundance relative to vehicle (solubility fold change) (ratio); higher = more soluble protein in presence of ATP
Procedure, shortened: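 Across three independent experiments, values are fold changes against the detergent-processed vehicle for each replicate, based on vsn-normalised intensities. The samples were Jurkat crude lysate treated with eight concentrations (0.1 to 10 mM) for 10 min at room temperature and then 3 min at 37 °C. Lysate was solubilised with 0.8% NP40 and benzonase, ultracentrifuged, and the supernatant analysed by TMT-labelled LC-MS/MS.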

Target	NP40-soluble protein abundance (concentration: 1mM)	NP40-soluble protein abundance (concentration: 2mM)	NP40-soluble protein abundance (concentration: 4mM)	NP40-soluble protein abundance (concentration: 6mM)	NP40-soluble protein abundance (concentration: 8mM)	NP40-soluble protein abundance (concentration: 10mM)
UniProt Q14554 and related entries	1.05 ± 0.034	1.03 ± 0.017	1.06 ± 0.054	1.06 ± 0.032	1.1 ± 0.02	1.09 ± 0.019
UniProt Q4J6C6 and related entries	1.03 ± 0.054	1.04 ± 0.07	1.02 ± 0.088	0.989 ± 0.083	1.03 ± 0.058	1.01 ± 0.068
LBR (UniProt Q14739)	0.876 ± 0.075	0.824 ± 0.068	0.788 ± 0.063	0.782 ± 0.058	0.803 ± 0.067	0.767 ± 0.064
UniProt Q15811 and related entries	0.956 ± 0.052	0.961 ± 0.019	0.9578 ± 0.0036	0.98 ± 0.0019	0.956 ± 0.018	0.972 ± 0.04
UniProt Q16666 and related entries	1.3 ± 0.043	1.39 ± 0.048	1.42 ± 0.047	1.49 ± 0.11	1.53 ± 0.048	1.57 ± 0.029
UniProt Q15262-2|Q15262-3|Q15262 and related entries	0.988 ± 0.028	0.972 ± 0.018	0.987 ± 0.021	0.967 ± 0.035	0.97 ± 0.023	0.944 ± 0.013
UniProt Q2TAY7	1.13 ± 0.16	1.18 ± 0.076	1.17 ± 0.11	1.14 ± 0.16	1.29 ± 0.063	1.37 ± 0.089
UniProt Q14596 and related entries	0.943 ± 0.064	0.954 ± 0.12	0.946 ± 0.097	0.924 ± 0.13	0.962 ± 0.19	0.909 ± 0.13
UniProt Q14534 and related entries	1 ± 0.092	1.02 ± 0.053	1.04 ± 0.076	0.934 ± 0.08	1.01 ± 0.043	1.05 ± 0.1
PPA1 (UniProt Q15181)	0.985 ± 0.014	0.993 ± 0.011	0.947 ± 0.027	1.01 ± 0.041	0.951 ± 0.045	0.948 ± 0.039
WRN (UniProt Q14191)	1.24 ± 0.023	1.21 ± 0.068	1.28 ± 0.061	1.26 ± 0.11	1.34 ± 0.16	1.29 ± 0.038
PDS5A (UniProt Q29RF7)	0.94 ± 0.025	0.952 ± 0.0065	0.9295 ± 0.0078	0.95 ± 0.026	0.935 ± 0.013	0.945 ± 0.0096
TRIM25 (UniProt Q14258)	1 ± 0.013	0.996 ± 0.028	0.965 ± 0.014	1.01 ± 0.04	0.975 ± 0.045	0.984 ± 0.024
UniProt Q3L8U1 and related entries	1.03 ± 0.08	1.09 ± 0.12	1.1 ± 0.053	1 ± 0.057	0.989 ± 0.097	1.03 ± 0.14
TRMT5 (UniProt Q32P41)	0.962 ± 0.038	0.972 ± 0.052	0.948 ± 0.049	0.938 ± 0.072	0.957 ± 0.025	0.961 ± 0.036
UniProt Q15149 and related entries	1.16 ± 0.032	1.16 ± 0.036	1.17 ± 0.043	1.18 ± 0.062	1.17 ± 0.038	1.17 ± 0.039
Q1RLN5 and related entries (UniProt Q8IWW6)	0.977 ± 0.04	1.05 ± 0.12	1.06 ± 0.083	1 ± 0.048	1.1 ± 0.033	1.14 ± 0.12
C2orf76 (UniProt Q3KRA6)	0.922 ± 0.069	0.93 ± 0.028	0.947 ± 0.035	0.906 ± 0.054	0.945 ± 0.085	0.929 ± 0.059
UniProt Q15018	0.972 ± 0.04	0.961 ± 0.021	0.9491 ± 0.0046	0.945 ± 0.0082	0.939 ± 0.022	0.961 ± 0.045
PSME4 (UniProt Q14997)	1.07 ± 0.1	0.999 ± 0.029	0.999 ± 0.052	0.912 ± 0.025	1.03 ± 0.028	0.944 ± 0.026

Target	NP40-soluble protein abundance (concentration: 1mM)	NP40-soluble protein abundance (concentration: 2mM)	NP40-soluble protein abundance (concentration: 4mM)	NP40-soluble protein abundance (concentration: 6mM)	NP40-soluble protein abundance (concentration: 8mM)	NP40-soluble protein abundance (concentration: 10mM)
UniProt Q15599 and related entries	0.949 ± 0.031	0.9386 ± 0.0084	0.938 ± 0.033	0.929 ± 0.01	0.865 ± 0.023	0.858 ± 0.056
UniProt Q14157-4|Q14157-5|Q14157	0.991 ± 0.041	1.02 ± 0.019	1.01 ± 0.034	1.09 ± 0.032	1.02 ± 0.015	1.04 ± 0.014
PUS10 (UniProt Q3MIT2)	1.03 ± 0.12	1.05 ± 0.14	1.04 ± 0.17	0.95 ± 0.2	1.059 ± 0.0083	1.05 ± 0.06
UniProt Q15560 and related entries	1.03 ± 0.075	0.941 ± 0.046	1.06 ± 0.059	1.06 ± 0.049	0.932 ± 0.062	1.05 ± 0.075
FZD2 (UniProt Q14332)	1.008 ± 0.01	0.99 ± 0.051	1.05 ± 0.1	0.956 ± 0.22	0.905 ± 0.064	1.01 ± 0.099
UniProt Q16222 and related entries	0.976 ± 0.053	0.962 ± 0.062	0.942 ± 0.042	0.905 ± 0.086	0.959 ± 0.032	0.95 ± 0.058
KPNB1 (UniProt Q14974)	0.997 ± 0.031	1.023 ± 0.0065	0.997 ± 0.016	1.02 ± 0.016	1.01 ± 0.017	0.994 ± 0.045
UniProt Q15046 and related entries	1.03 ± 0.042	0.942 ± 0.028	0.9131 ± 0.005	0.941 ± 0.085	0.982 ± 0.05	0.92 ± 0.052
ZNHIT3 (UniProt Q15649)	0.958 ± 0.11	1.04 ± 0.14	1.04 ± 0.088	1.03 ± 0.041	0.983 ± 0.11	1 ± 0.083
UniProt Q14653 and related entries	1.03 ± 0.052	0.949 ± 0.067	0.949 ± 0.043	0.953 ± 0.11	0.924 ± 0.042	0.956 ± 0.068
PPP2R5D (UniProt Q14738)	0.941 ± 0.055	0.955 ± 0.024	0.929 ± 0.037	0.968 ± 0.035	0.925 ± 0.014	0.93 ± 0.038
UniProt Q4ADV7 and related entries	0.979 ± 0.057	1.01 ± 0.12	0.937 ± 0.19	0.979 ± 0.13	0.966 ± 0.084	1.02 ± 0.19
UniProt Q16401 and related entries	1.03 ± 0.043	0.986 ± 0.014	0.976 ± 0.017	0.9541 ± 0.0081	0.992 ± 0.026	0.967 ± 0.027
SPA17 (UniProt Q15506)	0.919 ± 0.15	0.925 ± 0.04	0.987 ± 0.088	0.92 ± 0.14	0.888 ± 0.06	0.916 ± 0.069
HSDL1 (UniProt Q3SXM5)	1.09 ± 0.24	0.968 ± 0.19	0.967 ± 0.16	0.806 ± 0.2	1.02 ± 0.043	0.983 ± 0.079
DGUOK (UniProt Q16854)	1.02 ± 0.11	1.01 ± 0.074	1.01 ± 0.087	0.963 ± 0.14	1.02 ± 0.084	0.997 ± 0.084
UniProt Q15542 and related entries	1.13 ± 0.088	1.14 ± 0.074	1.18 ± 0.092	1.18 ± 0.12	1.18 ± 0.13	1.2 ± 0.064
UniProt Q15650 and related entries	0.885 ± 0.13	0.833 ± 0.14	0.881 ± 0.18	0.916 ± 0.12	0.971 ± 0.14	1.04 ± 0.15
Q15392 and related entries (UniProt Q3LIE7+Q15392)	0.974 ± 0.073	0.999 ± 0.11	1.01 ± 0.046	0.84668 ± 0.00015	1.06 ± 0.015	1.03 ± 0.044
UniProt Q15669	1.03 ± 0.18	1.04 ± 0.037	1.04 ± 0.064	1.02 ± 0.058	1.107 ± 0.0062	1.16 ± 0.093

Target	NP40-soluble protein abundance (concentration: 1mM)	NP40-soluble protein abundance (concentration: 2mM)	NP40-soluble protein abundance (concentration: 4mM)	NP40-soluble protein abundance (concentration: 6mM)	NP40-soluble protein abundance (concentration: 8mM)	NP40-soluble protein abundance (concentration: 10mM)
SF3B4 (UniProt Q15427)	1.1 ± 0.12	1.12 ± 0.032	1.13 ± 0.1	1.18 ± 0.094	1.18 ± 0.093	1.21 ± 0.081
TAF7 (UniProt Q15545)	1.03 ± 0.056	1.03 ± 0.02	1.03 ± 0.041	1.07 ± 0.11	1.04 ± 0.034	1.05 ± 0.016
UniProt Q15910 and related entries	1.18 ± 0.032	1.22 ± 0.042	1.23 ± 0.043	1.3 ± 0.11	1.31 ± 0.039	1.33 ± 0.053
UniProt Q14696	0.961 ± 0.035	0.941 ± 0.021	0.927 ± 0.017	0.997 ± 0.036	0.924 ± 0.046	0.927 ± 0.014
TST (UniProt Q16762)	0.966 ± 0.076	0.966 ± 0.058	1 ± 0.04	0.937 ± 0.1	0.962 ± 0.025	0.949 ± 0.054
UBE2S (UniProt Q16763)	1 ± 0.032	1.02 ± 0.004	1.04 ± 0.026	0.965 ± 0.07	1 ± 0.055	0.998 ± 0.037
UniProt Q27J81 and related entries	0.929 ± 0.054	0.958 ± 0.044	0.928 ± 0.058	0.927 ± 0.033	0.924 ± 0.056	0.937 ± 0.038
UniProt Q15003 and related entries	0.976 ± 0.044	0.962 ± 0.038	0.942 ± 0.025	0.977 ± 0.047	0.943 ± 0.013	0.944 ± 0.015
UniProt Q3MHD2 and related entries	1.01 ± 0.046	1.025 ± 0.0053	0.996 ± 0.052	1.05 ± 0.028	1.06 ± 0.041	1.05 ± 0.034
UniProt Q16659	0.99 ± 0.14	0.971 ± 0.13	1.03 ± 0.097	1.02 ± 0.12	1.07 ± 0.17	1.02 ± 0.097
UniProt Q14161-5|Q14161	0.985 ± 0.066	0.957 ± 0.035	0.935 ± 0.061	0.971 ± 0.075	0.931 ± 0.044	0.92 ± 0.027
UniProt Q3B7J2 and related entries	0.973 ± 0.11	0.973 ± 0.093	0.958 ± 0.086	0.911 ± 0.11	0.98 ± 0.021	1.05 ± 0.075
UniProt Q14978-2	0.791 ± 0.039	0.786 ± 0.035	0.824 ± 0.049	0.968 ± 0.056	1 ± 0.072	1.06 ± 0.023
UniProt Q15544 and related entries	1.09 ± 0.025	1.17 ± 0.058	1.15 ± 0.042	1.13 ± 0.2	1.18 ± 0.15	1.14 ± 0.028
PGGHG (UniProt Q32M88)	0.974 ± 0.14	1.02 ± 0.1	0.983 ± 0.09	0.941 ± 0.037	1.07 ± 0.13	1.06 ± 0.12
UniProt Q15390 and related entries	1.04 ± 0.065	1.01 ± 0.051	1.02 ± 0.062	1.07 ± 0.041	1.05 ± 0.062	1.02 ± 0.096
UniProt Q15006	0.966 ± 0.021	0.978 ± 0.045	0.985 ± 0.021	0.959 ± 0.027	0.987 ± 0.014	0.976 ± 0.035
NDUFA9 (UniProt Q16795)	1.06 ± 0.15	1 ± 0.093	0.991 ± 0.075	0.934 ± 0.082	1.04 ± 0.059	0.99 ± 0.078
GAMT (UniProt Q14353)	1.03 ± 0.034	1.03 ± 0.053	1.01 ± 0.087	0.968 ± 0.041	0.997 ± 0.041	1.03 ± 0.014
POLA2 (UniProt Q14181)	0.983 ± 0.067	0.95 ± 0.045	0.967 ± 0.042	0.946 ± 0.059	0.972 ± 0.027	0.982 ± 0.015

Full records, quoted from the list. Values in the order: NP40-soluble protein abundance (concentration: 1mM)	NP40-soluble protein abundance (concentration: 2mM)	NP40-soluble protein abundance (concentration: 4mM)	NP40-soluble protein abundance (concentration: 6mM)	NP40-soluble protein abundance (concentration: 8mM)	NP40-soluble protein abundance (concentration: 10mM)
UniProt Q15006 in the list: 0.966 ± 0.021	0.978 ± 0.045	0.985 ± 0.021	0.959 ± 0.027	0.987 ± 0.014	0.976 ± 0.035
TAF7 (UniProt Q15545) in the list: 1.03 ± 0.056	1.03 ± 0.02	1.03 ± 0.041	1.07 ± 0.11	1.04 ± 0.034	1.05 ± 0.016
TST (UniProt Q16762) in the list: 0.966 ± 0.076	0.966 ± 0.058	1 ± 0.04	0.937 ± 0.1	0.962 ± 0.025	0.949 ± 0.054
UniProt Q14978-2 in the list: 0.791 ± 0.039	0.786 ± 0.035	0.824 ± 0.049	0.968 ± 0.056	1 ± 0.072	1.06 ± 0.023
